Some results were stated once for a whole list of compounds, not compound by compound.
Tested on: A/Victoria/3/75 (H3N2) virus
Assay: Mouse model of influenza infection, treatment initiated 24 or 48 hours after infection (Example 3B)
Assay type: in vivo, mice
Settings: treatment initiated 48 hours after infection; day 13

NC12CC3CC(CC(C3)C1)C2 [Amantadine, 1-amino-adamantane]
weight as percent of original weight: 65-70%

CCOC(=O)C1=C[C@@H](OC(CC)CC)[C@H](NC(C)=O)[C@@H](N)C1 [Oseltamivir]
weight as percent of original weight: 65-70%

From patent US7981930B2, “Compositions and kits for treating influenza” (Adamas Pharmaceuticals, Inc., priority 2007, dated 2011)
